Results: PMC5931557
Substitutions are numbered along the chain they refer to. Numbers in names are those of the source. These are yes or no findings as the source states them, for the method shown. For part of these data: Binding seen in cells or lysates may run through a third protein. Some entries that bind do so weakly or less than the wild type. For part of these data: Sequences can lack the tags named with a protein. Blank lines part the entries; values can stand above or below the binder they belong to.

Tests used:
[1] = molecular target: wild-type (WT) mTRAIL-R, transiently overexpressed (mouse) (UniProt Q9QZM4); test: non-reducing SDS-PAGE and immunoblot; lysates of Trail-R-/- MEFs transiently transfected for 24 h with 300 or 600 ng pcDNA3 plasmid, immunoblot for mTRAIL-R in reducing vs non-reducing conditions
[2] = molecular target: N99/N122/N150Q mTRAIL-R mutant, transiently overexpressed (mouse) (UniProt Q9QZM4); test: as above
[3] = molecular target: N-glycosylated mouse TRAIL receptor (mTRAIL-R), endogenous in MEFs (mouse (endogenous in MEFs)) (UniProt Q9QZM4); test: non-reducing SDS-PAGE and immunoblot; high molecular weight forms of mTRAIL-R in the streptavidin pull-down of Biot-ILZ hTRAIL from MEFs (tunicamycin or control), non-reducing conditions
[4] = molecular target: T1, Fas-associated death domain (FADD), endogenous in MEFs (mouse (endogenous in MEFs)) (UniProt Q61160); test: co-IP; MEFs treated with tunicamycin or control for 7 h, then mTRAIL-SK (20 ng/ml) or control for 2 h; lysis in 10 mM Tris-HCl pH 7.5, 150 mM NaCl, 1% NP-40, 10% glycerol; endogenous FADD immunoprecipitated overnight at 4 °C; mTRAIL-R detected in non-reducing conditions
T1 sequence: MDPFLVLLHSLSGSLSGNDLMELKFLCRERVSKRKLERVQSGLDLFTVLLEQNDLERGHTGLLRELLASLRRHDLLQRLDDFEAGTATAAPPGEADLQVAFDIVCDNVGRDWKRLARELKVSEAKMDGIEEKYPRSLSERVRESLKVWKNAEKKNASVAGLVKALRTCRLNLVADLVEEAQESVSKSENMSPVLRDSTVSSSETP

[5] = molecular target: T1, Fas-associated death domain (FADD), endogenous in MEFs (mouse (endogenous in MEFs)); test: pull-down; same streptavidin pull-down of Biot-ILZ hTRAIL-bound complexes from MEFs (tunicamycin or control 7 h), read for FADD found with the receptor
[6] = molecular target: non-N-glycosylated mouse TRAIL receptor (mTRAIL-R), endogenous in tunicamycin-treated MEFs (mouse (endogenous in MEFs)) (UniProt Q9QZM4); test: non-reducing SDS-PAGE and immunoblot; high molecular weight forms of mTRAIL-R in the streptavidin pull-down of Biot-ILZ hTRAIL from MEFs (tunicamycin or control), non-reducing conditions

- binding [1]: binds
B1: wild-type (WT) mTRAIL-R, transiently overexpressed (receptor, UniProt Q9QZM4 53-381)
chain: NPAHNRPAGLQRPEESPSRGPCLAGQYLSEGNCKPCREGIDYTSHSNHSLDSCILCTVCKEDKVVETRCNITTNTVCRCKPGTFEDKDSPEICQSCSNCTDGEEELTSCTPRENRKCVSKTAWASWHKLGLWIGLLVPVVLLIGALLVWKTGAWRQWLLCIKRGCERDPESANSVHSSLLDRQTSSTTNDSNHNTEPGKTQKTGKKLLVPVNGNDSADDLKFIFEYCSDIVPFDSWNRLMRQLGLTDNQIQMVKAETLVTREALYQMLLKWRHQTGRSASINHLLDALEAVEERDAMEKIEDYAVKSGRFTYQNAAAQPETGPGGSQCV
modifications: N-glycosylated on N99, N122 and N150

- binding [2]: binds
B2: N99/N122/N150Q mTRAIL-R mutant, transiently overexpressed (receptor, UniProt Q9QZM4 53-381)
chain: B1 chain with N47Q, N70Q, N98Q

- binding [3]: binds
B3: N-glycosylated mouse TRAIL receptor (mTRAIL-R), endogenous in MEFs (receptor, UniProt Q9QZM4 53-381)
chain: B1 chain
modifications: N-glycosylated on N99, N122 and N150

- binding [6]: binds
B4: non-N-glycosylated mouse TRAIL receptor (mTRAIL-R), endogenous in tunicamycin-treated MEFs (receptor, UniProt Q9QZM4 53-381)
chain: B1 chain
- binding [4]: binds
- binding [5]: binds
